According to PMC5601625, “Defining a therapeutic window for kinase inhibitors in leukemia to avoid neutropenia” (Oncotarget, 2017):

Legend:
Experiment in all cases: Cell Titer Glo cell viability assay, 48 h
Format in all cases: cell-based
EOL-1 = conditions: Homo sapiens, EOL1, 48 h, read-out: IC50 of inhibitors on cell lines, m (mean)
Protocol: (§1) The activity of the kinase inhibitor collection against a panel of human leukemia cell lines was determined in cell viability assays run over 48 h using the Cell Titer Glo reagent.
(§2) Figure 1 Effects of kinase inhibition on the proliferation of leukemia cells A. Human leukemia cell lines were treated with duplicate serial dilutions of kinase inhibitors and the effect on cell viability was determined by Cell Titer Glo assay after 48 hours. […] HL-60 cells were treated with serial dilutions of mTor/PI3K B. and MEK C. inhibitors and the effect on cell viability was determined after 48 hours. Data shown is the mean ± SEM of 3 independent experiments.
(§3) Leukemia and lymphoma cell lines were grown in RPMI containing 10% FCS. […] Cell lines are routinely tested for mycoplasma and genotyped by short tandem repeating (STR) profiling to confirm identity.
(§4) Compounds were obtained from SynMedChem and dissolved at […] in DMSO. Serial 2-fold dilutions of each compound were prepared in DMSO using a liquid handling robot (Janus, Perkin Elmer). Each dilution (100nL) was transferred to duplicate tissue culture plates containing 50 μL of media containing 5 × 10^3 cells using a 384 well pin tool. Cells were incubated for 48 h and cell viability was determined using Cell Titer Glow reagents as described by the manufacturer (Promega). Data was acquired using a luminescent plate reader (Envision, Perkin Elmer) and analysed using Activity Base (IDBS, Guilford, UK) and visualised using Spotfire (TIBCO, Palo Alto, CA) as described previously. Each cell line was assayed in independent experiments on at least two occasions. […] Serial 2-fold dilutions of each compound were prepared in media containing 0.2% DMSO and 50 μl of each dilution was added to 10^4 cells in 50 μl of media. Cells were incubated for 48 h and cell viability was determined using Cell Titer Glow assay as described above.

HEL.92.1.7 = conditions: Homo sapiens, HEL 92.1.7, 48 h, read-out: IC50 of inhibitors on cell lines, m (mean)
Protocol: as §1, §2, §3, §4

HL-60 = conditions: Homo sapiens, HL-60, 48 h, read-out: IC50 of inhibitors on cell lines, m (mean)
Protocol: as §1, §2, §3, §4

JURKAT = conditions: Homo sapiens, read-out: IC50 of inhibitors on cell lines, m (mean)
Protocol: as §1, §2, §3, §4

K562 = conditions: Homo sapiens, K562, 48 h, read-out: IC50 of inhibitors on cell lines, m (mean)
Protocol: as §1, §2, §3, §4

KU-812 = conditions: Homo sapiens, KU812, 48 h, read-out: IC50 of inhibitors on cell lines, m (mean)
Protocol: as §1, §2, §3, §4

MEG-01 = conditions: Homo sapiens, MEG-01, 48 h, read-out: IC50 of inhibitors on cell lines, m (mean)
Protocol: as §1, §2, §3, §4

MOLT4 = conditions: Homo sapiens, MOLT-4, 48 h, read-out: IC50 of inhibitors on cell lines, m (mean)
Protocol: as §1, §2, §3, §4

MV4;11 = conditions: Homo sapiens, MV4-11, 48 h, read-out: IC50 of inhibitors on cell lines, m (mean)
Protocol: as §1, §2, §3, §4

OCI-AML3 = conditions: Homo sapiens, OCI-AML-3, 48 h, read-out: IC50 of inhibitors on cell lines, m (mean)
Protocol: as §1, §2, §3, §4

THP-1 = conditions: Homo sapiens, THP-1, 48 h, read-out: IC50 of inhibitors on cell lines, m (mean)
Protocol: as §1, §2, §3, §4

U937 = conditions: Homo sapiens, U-937, 48 h, read-out: IC50 of inhibitors on cell lines, m (mean)
Protocol: as §1, §2, §3, §4

C[S+]([O-])c1ccc(-c2nc(-c3ccncc3)c(-c3ccc(F)cc3)[nH]2)cc1 (stereo not drawn) [SB203580] was tested, and the IC50 (EOL-1) was 1.45 µM, the IC50 (HEL.92.1.7) was > 10 µM and the IC50 (HL-60) was > 10 µM. For the same compound, the IC50 (JURKAT) was > 10 µM, the IC50 (K562) was > 10 µM and the IC50 (KU-812) was > 10 µM. For the same compound, the IC50 (MEG-01) was > 10 µM, the IC50 (MOLT4) was > 10 µM and the IC50 (MV4;11) was > 10 µM. The IC50 (OCI-AML3) was > 10 µM, the IC50 (THP-1) was > 10 µM and the IC50 (U937) was > 10 µM.
